PubChem BioAssay AID2685 (National Center for Advancing Translational Sciences (NCATS), 2010)
This is one part of the list. Shown are side measurements of this screen, not its main read-out; they come without a call. Most of these compounds were active or inconclusive in the main read-out, so they are no random draw. Words in brackets tell the shape of the fitted curve; partial curves, single points and poor fits give uncertain potencies.

Assay: qHTS Assay for Lipid Storage Modulators in Drosophila S3 Cells;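 for cell number change: cells counted by Cell Tracker Red CMTPX staining in the red channel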
Conditions: BODIPY lipid droplet fluorescence, 18-24 h; for cell number change: measured here: cell count max response, cells fed with added oleic acid
Outline: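 Drosophila S3 cells got compounds at several concentrations plus oleic acid (400 uM solution). Laser-scanning cytometry with 488 nm excitation read lipid droplets at 500-530 nm and cells at 575-640 nm. Percent activity was relative to 20 uM Triacsin C.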

[1] = measured here: lipid fluorescence (Fed channel) AC50, cells fed with added oleic acid
[2] = measured here: cell number channel AC50, cells fed with added oleic acid

Row | Compound | cell number change [%] | AC50 [1] | AC50 [2]
1 | CCOC(=O)C1=C(C)Nc2ccccc2N/C1=N\S(=O)(=O)c1ccc(Cl)cc1 | -6.87 | 0.92 µM [falling, full curve] | 
2 | CN(C)S(=O)(=O)c1ccc(C(=O)N2CCC(c3nc4ccccc4o3)CC2)cc1 |  | 6.51 µM [rising, single point] | 4.61 µM [rising, single point]
3 | O=C(CNC(=O)c1ccc(Cl)cc1Cl)OCC(=O)N1CCCC1 | -4.4 | 1.84 µM [rising, partial curve] | 
4 | COC(=O)c1onc(-c2ccccc2)c1C(=O)OC |  | 2.59 µM [falling, full curve, poor fit] | 6.51 µM [falling, single point]
5 | CC(=O)c1cccc(Nc2ccc(-c3ccccc3F)nn2)c1 | -10.4 |  | 
6 | CCN(CC)c1ccc(C(=O)NNC(=O)CN2C(=O)NC(C)(c3ccccc3)C2=O)cc1 (stereo unspecified) | 34.2 | 5.8 µM [falling, partial curve] | 25.9 µM [rising, single point]
7 | O=C(Nc1nc2ccccc2n1Cc1ccccc1)c1ccco1 | -17.6 |  | 
8 | CCOC(=O)c1c(CN(C)C)n(C)c2c(O)c(N=NC(N)=O)c3ccc(Br)cc3c12 | -49.3 | 29.1 µM [falling, single point] | 32.6 µM [falling, single point]
9 | COC(=O)c1cc(Cl)c(NC(=O)C(C)C)cc1OC | -21.7 | 0.0731 µM [falling, full curve, poor fit] | 1.64 µM [falling, partial curve, poor fit]
10 | CCOC(=O)C(Cc1c(F)cccc1F)(NC(C)=O)C(=O)OCC | -2.56 | 1.3 µM [falling, full curve] | 
11 | COc1cccc(CN(C)C(=O)c2ccc3c(=O)n4c(nc3c2)CCC4)c1OC | -36.4 | 1.64 µM [falling, full curve] | 3.66 µM [falling, full curve, poor fit]
12 | CC(=O)NC(c1ccc2ccccc2c1)c1ccc2cccnc2c1O (stereo unspecified) | -66.2 |  | 20.6 µM [falling, partial curve]
13 | CC1CCN(c2nnc(N)s2)CC1 | -52 | 1.84 µM [falling, partial curve] | 1.84 µM [falling, partial curve]
14 | Cc1coc2c1c(C)cc1oc(=O)c(CC(=O)NCC(=O)O)c(C)c12 | 4.5 | 29.1 µM [rising, single point] | 
15 | CCOC(=O)CC(NC(=O)CCS(=O)(=O)c1ccc2c(c1)n(C)c(=O)c(=O)n2C)c1ccc(C)cc1 (stereo unspecified) | -1.47 |  | 
16 | O=S(=O)(c1cccc(C(F)(F)F)c1)N1CCN(c2cnccn2)CC1 | 11.2 |  | 
17 | O=C(Nc1ccccc1Cl)C1CCCN1C(=O)OCc1ccccc1 (stereo unspecified) | -18 | 29.1 µM [rising, single point] | 0.00411 µM [falling, full curve, poor fit]
18 | CCCn1c(C)cc(-c2csc(N)n2)c1C |  | 2.91 µM [rising, partial curve] | 2.91 µM [rising, partial curve]
19 | Cc1ccc(S(=O)(=O)N/N=C/c2cccc(OC3CSC3)c2)cc1 | -59.7 | 1.16 µM [falling, full curve] | 1.3 µM [falling, full curve]

Row | Compound | cell number change [%] | AC50 [1] | AC50 [2]
20 | Cc1ccc(NC(=O)c2sccc2-n2cccc2)c(C)c1 | 69.1 | 0.082 µM [rising, full curve, poor fit] | 0.326 µM [rising, partial curve, poor fit]
21 | C/C(=N\NC(=O)CSc1nc(C)cc(C)n1)c1cccc([N+](=O)[O-])c1 | 1.74 | 0.00517 µM [rising, full curve, poor fit] | 
22 | CC(C(=O)N1c2ccccc2CCc2ccccc21)n1nnc(-c2ccc(N(C)C)cc2)n1 (stereo unspecified) | -10.6 | 32.6 µM [falling, single point] | 
23 | COCCCNC(=O)c1cccc(C(=O)NCCCOC)c1 | -19.5 | 0.651 µM [falling, full curve] | 
24 | CC(C)C[C@H](N)c1nnc(SCC(=O)Nc2ccc(Br)cc2)o1 |  | 29.1 µM [rising, single point] | 
25 | O=C1CCCC2=C1C(c1ccsc1)CC(=O)N2c1ccccc1 (stereo unspecified) | -163 | 23.1 µM [falling, partial curve] | 25.9 µM [falling, partial curve]
26 | Cc1csc(NC(=O)c2ccc3c(c2)OCO3)n1 | 0.435 | 0.116 µM [rising, full curve, poor fit] | 
27 | O=C(c1cccs1)N(CCN1CCCCC1)CC1CCCN(C2CCCC2)C1 (stereo unspecified) | 2.75 |  | 
28 | Cc1cccc2nc(CSc3nc4[nH]ncc4c(=O)n3-c3ccccc3Cl)cc(=O)n12 | 14.5 | 0.082 µM [rising, full curve, poor fit] | 
29 | Cc1ccc(S(=O)(=O)N2CCCCC2)cc1C(=O)NC1CC(C)(C)NC(C)(C)C1 | -24.8 | 16.4 µM [falling, partial curve] | 3.26 µM [falling, full curve, poor fit]
30 | Cc1[nH]c2ccccc2c1-c1ccc(Cl)nn1 | 65.8 |  | 18.4 µM [rising, partial curve]
31 | COCCCn1cnc2c(c1=O)c1nc3ccccc3nc1n2-c1ccc(C)cc1 | 19.6 | 6.51 µM [rising, single point] | 
32 | COc1ccccc1CCC(=O)Nc1nc2ccccc2[nH]1 | 4.42 | 0.92 µM [rising, full curve] | 
33 | O=C(O)CC(NC(=O)CCC1CCCCC1)c1cc([N+](=O)[O-])ccc1Cl (stereo unspecified) | -27.5 | 4.61 µM [falling, full curve] | 3.66 µM [falling, full curve, poor fit]
34 | COc1ccc(OCCCC(=O)Nc2nnc(C3CCCO3)s2)cc1 (stereo unspecified) | 16.2 | 5.17 µM [rising, full curve] | 
35 | CCC1S/C(=N\S(=O)(=O)c2cccs2)N(C2CCCCC2)C1=O (stereo unspecified) | 0.872 | 0.00411 µM [falling, full curve, poor fit] | 
36 | O=C(O)c1ccccc1C(=O)NCc1cccnc1 | 25 |  | 0.0164 µM [rising, full curve, poor fit]
37 | COCCN1C(=O)C(O)=C(C(C)=O)C1c1ccc(F)cc1 (stereo unspecified) | -5.39 |  | 
38 | O=C(Nc1nc(-c2ccco2)c(-c2ccco2)s1)c1ccco1 |  | 6.51 µM [rising, single point] | 

Random excerpt: 2 compounds from above
Row | Compound | cell number change [%] | AC50 [1] | AC50 [2]
33 | O=C(O)CC(NC(=O)CCC1CCCCC1)c1cc([N+](=O)[O-])ccc1Cl (stereo unspecified) | -27.5 | 4.61 µM [falling, full curve] | 3.66 µM [falling, full curve, poor fit]
27 | O=C(c1cccs1)N(CCN1CCCCC1)CC1CCCN(C2CCCC2)C1 (stereo unspecified) | 2.75 |  | 

Following part

Row | Compound | cell number change [%] | AC50 [1] | AC50 [2]
39 | CCOc1ccc(NCc2cccn2-c2nnc(N3CCC(C(=O)NCCCN4C(C)CCCC4C)CC3)s2)cc1 (stereo unspecified) | 17.1 | 14.6 µM [rising, partial curve] | 1.64 µM [rising, partial curve, poor fit]
40 | COC(=O)c1sc2nc(-c3ccco3)ccc2c1N | -9.93 | 0.651 µM [falling, full curve, poor fit] | 
41 | COc1ccc(S(=O)(=O)N2CCc3ccccc32)cc1C(=O)O | 28.5 |  | 
42 | COc1ccc(CCNC(=O)c2cc(=O)c3cc(C)ccc3o2)cc1 | 28.6 | 11.6 µM [rising, partial curve, poor fit] | 0.517 µM [rising, full curve, poor fit]
43 | CCOC(=O)[C@H](CCc1ccccc1)N[C@@H](C)C(=O)N1CCC[C@H]1C(=O)O | -24.7 | 5.17 µM [falling, single point] | 
44 | CC12CC3(C)CC(C)(C1)CC(C(=O)NCC(=O)O)(C2)C3 |  | 1.3 µM [falling, full curve] | 
45 | CCc1ccc(CCC(=O)Nc2nc(CC(C)=O)ns2)o1 | 0.814 |  | 
46 | COc1ccc(S(=O)(=O)Nc2ccc(F)c(F)c2)cc1Cl | -92.3 | 29.1 µM [falling, single point] | 29.1 µM [falling, single point]
47 | Cc1nn2cc(-c3ccccc3)nc2[nH]c1=O | -24.2 | 29.1 µM [falling, single point] | 
48 | Cc1c(O)nc(SCC(=O)Nc2ccc3c4c(cccc24)CC3)n(-c2ccccc2)c1=O | 8.36 | 2.06 µM [falling, partial curve] | 2.06 µM [falling, partial curve]
49 | CCOCCn1c(-c2ccc(OC)cc2)nc2ccccc21 | 44.5 | 16.4 µM [rising, partial curve] | 13 µM [rising, partial curve, poor fit]
50 | OCC[C@@H]1C[C@H](O)[C@@H](O)[C@]2(Cc3ccccc3O2)O1 | 30.2 |  | 4.61 µM [rising, partial curve, poor fit]
51 | CC(=O)C1=C(C)NC2=C(C(=O)c3ccccc32)C1c1ccccc1 (stereo unspecified) |  | 5.17 µM [falling, single point] | 6.51 µM [falling, single point]
52 | O=C(c1ccc(S(=O)(=O)N2CCCCC2)cc1)N1CCN(Cc2ccc3c(c2)OCO3)CC1 | 1.48 | 4.11 µM [rising, full curve, poor fit] | 
53 | COc1ccccc1N1CCN(C(=O)C(Cc2ccccc2)NC(=O)C2CCCCC2)CC1 (stereo unspecified) |  | 2.31 µM [rising, partial curve] | 3.66 µM [rising, single point]
54 | CC(=O)c1c(C)nc2sc3c(=N)n(N)cnc3c2c1-c1ccc(Cl)cc1 | 37.2 |  | 16.4 µM [rising, partial curve]
55 | CC(C)(O)C(=O)NNC(=S)Nc1ccc(F)c(Cl)c1 | 12.8 |  | 
56 | CN(Cc1ccccc1)S(=O)(=O)c1ccc(Cl)c(C(=O)NCCCN2CCOCC2)c1 | -27.4 | 6.51 µM [falling, single point] | 
